# According to the supplement of paper PMC10338343:
# ± gives the standard deviation. This is one part of the list. Many entries were measured with a wide error.
# System: EfPiwi piRISC loaded with L1MC piRNA (26 nt)
# Assay: pre-steady-state target cleavage rate (min^-1); guide: L1MC piRNA 5'p-UAACUAAAUACUAUGCAAGCUGUAGG; MIWI and MILI are mouse PIWI proteins and EfPiwi is from a freshwater sponge; tags in brackets are library labels; higher = faster piRNA-guided slicing of the target
# Outline: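 The pre-steady-state cleavage rate was derived from a burst-and-steady-state fit of Cleave-'n-Seq data. For these assays, 1 nM active affinity-purified piRISC loaded with a single synthetic guide was mixed with […] a transcribed, DNA-blocked target RNA library in HEPES–potassium acetate buffer at 33 °C, with or without 500 nM GTSF1 partner protein, for 0–8 or 0–960 min. Sequencing counts of uncleaved targets were normalised to depth and to weakly complementary targets, and k3 was capped at 0.0001 min^-1 after three trials were pooled.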
# [1] = auxiliary factor: 500 nM Ephydatia muelleri Gtsf1
# [2] = auxiliary factor: none (no Gtsf1)
Sequence,pre-steady-state target cleavage rate [1],pre-steady-state target cleavage rate [2]
UCCUGGAACAGCUUGCAUAGUACUUAGUUA,0.0218 ± 0.0069,0.00157 ± 0.0077
UCCUGCUACGAGCUUGCAUAGUAUUUAGUUA,0.00866 ± 0.0022,0.000686 ± 0.0083
UCCUGGUACAGCUAGCAUAGAAUUUAGUUA,0.000943 ± 0.01,0.000156 ± 0.054
UCCUGGAACAGCUUGCAUAGUAAAUAGUUA,0.00589 ± 0.0023,0.00084 ± 0.011
UCCUGGAUGAGCUUGCAUAGUAUUUUAGUUA,0.00631 ± 0.0035,0.00142 ± 0.0097
UCCUGGUACACGUUGCAUAGUAUUUAGUUA,0.00176 ± 0.0065,0.000192 ± 0.055
UCCUGGAUCAGCUUGCAUAGUAUUUUAGUUA,0.0214 ± 0.0071,0.0111 ± 0.0065
UCCUGCUACAGCUUGGAUAGUUUUUAGUUA,0.0172 ± 0.0039,0.00264 ± 0.005
UCCUCCAUCAGCUUGCAUAGUAUUUAGAAA,0.00539 ± 0.0026,0.000509 ± 0.012
UCCUGGAUCAGCUUGCAUAGUAAUUAGUUA,0.0264 ± 0.0082,0.00382 ± 0.0043
UCCUGGAUGUCGAACGUUAGUAUUAAGUAA,< 0.0001,0.000105 ± 0.056
UCCUGGAUCAGCUUGCAAACUAUUUAGUUA,0.00476 ± 0.003,0.000388 ± 0.019
